Screen size: about 1,400 compounds; about 50 (4%) were called active.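 How the source made its calls: active means fitted curve reaches 30% CPE protection at or below the top valid dose, with every test run called active; inconclusive means test runs disagree, some active and some not; inactive means every test run inactive, including effects in the wrong direction.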 Some of the results follow. Entries with a potency or affinity are not part of this list.
Assay: Dengue virus 2 cytopathic effect protection, dose response, BHK-21 cells, ATP luminescence, cherry-pick (AID 687031);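 further: 0% = infected DMSO wells and 100% = uninfected cell wells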
Settings: BHK-21 DENV2 CPE protection, 5 d; at 19.5 µM (top of the series) unless noted

CPE protection (higher = active), inactive:
Cc1ccc(CNCc2cc(Cl)ccc2O)cc1 -18.1%
CC(=O)NC[C@H]1[C@H](c2ccc(-c3ccccc3F)cc2)[C@@H](CO)N1C(=O)C1CC1 -16.5%
CCc1ccc(NC(=O)N(CCCN2CCOCC2)Cc2cccs2)cc1 -13%
CC(=O)Nc1ccc(-c2ccnc3c2CC(C(=O)Nc2ccccc2)O3)cc1 (stereo not given) -11.2%
CCOc1ccc(OCC(=O)N(C)c2c(N)n(Cc3ccccc3)c(=O)[nH]c2=O)cc1 0.088%
C=CCOc1ccccc1OCC(O)CNC(C)C (stereo not given) 10.9%
CN(c1cccc(NC(=O)c2ccc(C(C)(C)C)cc2)c1)S(C)(=O)=O -35.6%
Cc1csc(-c2nc3ccccc3n2C(C(=O)NC(C)(C)C)c2ccccc2)c1 (stereo not given) -21.3%
COc1ccc(CN(C(=O)c2ccc(C)cc2)c2cccc(N)c2)cc1 -13.5%
CC(C)(C)OC(=O)N1CCC(NC(=O)c2nc[nH]c2C(=O)NCC(=O)OCc2ccccc2)CC1 -1.19%
CC(C(=O)NCc1ccccc1)n1c(CSCCOc2ccccc2)nc2ccccc21 (stereo not given) 14.1% [at 10 µM]
O=C(C[C@@H]1CC[C@H]2[C@@H](COC[C@@H](O)CN2Cc2cccc(Cl)c2)O1)N1CCOCC1 -1.26%
CN1CCC(=O)N([C@H](COc2ccccc2)Cc2ccccc2)CC1 4.89%
CCOc1ccc2nc(NC(=O)CN3CCN(CC)CC3)sc2c1 -2.67%
C[C@@H]1CN([C@@H](C)CO)C(=O)CCCn2cc(nn2)CO[C@H]1CN(C)C(=O)Nc1cccc2ccccc12 12.5% [at 21 µM]
COc1ccc(/C=N\NC(=O)c2ccc(-c3ccccc3)cc2)cc1COC(C)=O 7.02%
CC1(C)CN(Cc2cccnc2)C(=O)[C@H]1CC(=O)Nc1ccc(Br)cc1 -8.43%
Cc1noc(C)c1S(=O)(=O)Nc1ccc2c(c1)C(=O)N([C@@H](C)CO)C[C@@H](C)[C@H](CN(C)C(=O)Nc1ccccc1)OCCCC[C@@H](C)O2 -30.8%
CCC(=O)Nc1nnc(/C=C/c2ccc(OC)cc2)s1 21.1%
CCOC(=O)N1CCN(Cc2nc3cc(NC(=O)CC)ccc3n2CC)CC1 15.8%
CCCNC(=O)N1[C@H](CO)[C@H](c2ccccc2-c2ccccc2)[C@@H]1C#N -6.89% [at 21 µM]
Cc1oc2cc3oc(=O)c(CCC(=O)NCCCn4ccnc4)c(C)c3cc2c1C -30%
CC(=O)N1[C@H](CO)[C@H](c2ccccc2)C12CN(C(=O)CN1CCOCC1)C2 6.64%
COc1ccc(Cl)cc1N1C(=O)CC(N2CCN(S(=O)(=O)c3ccccc3F)CC2)C1=O (stereo not given) -0.667%
O=C(CCn1cncn1)N1CCCC(N2CCN(c3ccc(F)cc3)CC2)C1 (stereo not given) -11.5%
C[C@H](NC(=O)C1CCN(S(=O)(=O)c2ccccc2)CC1)C(=O)NCc1cccnc1 11.9%
O=C(CCc1nc2ccccc2c(=O)[nH]1)N1CCCc2ccccc21 -18.8%
CO[C@@H]1CN(C)C(=O)c2ccc(NC(=O)Nc3cc(F)ccc3F)cc2OC[C@@H](C)N(C(=O)c2ccccn2)C[C@H]1C 17.2% [at 21 µM]
CCN1CCN(C(=O)C2CC(=O)N(c3ccc(Cl)cc3)C2)CC1 (stereo not given) -9.64%
O=C(c1ccc(CNc2c(N3CCCC3)c(=O)c2=O)cc1)N1CCN(C2CCCCC2)CC1 5.25%
CCC1=C(OC(=O)N(CC)CC)N2C(=O)OC(=NCC3CC3)[C@]2(C)[C@H]2C1=CC[C@H]1C(=O)NC(=O)[C@H]12 2.64%
CCOC(=O)N/N=C/c1cc(C)n(-c2cccc3ccccc23)c1C 13.1%
COc1ccc(S(=O)(=O)Nc2ccc3c(c2)C(=O)N([C@@H](C)CO)C[C@@H](C)[C@H](CN(C)S(=O)(=O)c2ccc(Cl)cc2)O3)cc1 6.17% [at 21 µM]
Oc1cc2c(cc1O)C(c1ccccc1)CNCC2 (stereo not given) -12.6%
O=S1(=O)CCOC[C@H](Cc2ccccc2)N1Cc1cccc(F)c1 14.1% [at 10 µM]
CCOc1ccc(NC(=O)C2CC(=O)N(CCc3ccccc3)C2)cc1OC (stereo not given) -11.4%
Cc1ccc(S(=O)(=O)NC(=O)C2(C)CCN2C(=O)Cc2cccs2)cc1 (stereo not given) -2.07%
COc1ccc(Br)cc1[C@H]1[C@H]2C=CC[C@@H](C)[C@@H]2C(=O)N1Cc1ccccc1 -20.3%
CC(C)(C)OC(=O)C(Cc1ccc(OC(C)(C)C)cc1)NC(=O)CNC(=O)OCc1ccccc1 (stereo not given) -14.3%
Cc1ccc(S(=O)(=O)N2CCOCC2)cc1NC(=O)CN(C)CC(=O)Nc1cccc(F)c1 -5.13%
COCc1cccc(-c2csc(C(N)c3ccc(F)c(F)c3)n2)c1 (stereo not given) 0.55%
CC(=O)Nc1cccc2ncccc12 7.69%
Cc1ccc(SCCN2CCC(NC(=O)OCc3ccccc3)CCC2=O)cc1 (stereo not given) -8.36%
COc1ccccc1C(=O)Nc1ccc2c(c1)CN(Cc1cnc(C)s1)CC2 -14.8%
Cc1cc(C)n2c(Nc3ccc4c(c3)OCCO4)c(CC(C)C)nc2n1 3.78%
COc1ccccc1Cn1c(=S)[nH]c2cc(C(=O)N3CC(C)CC(C)C3)ccc2c1=O (stereo not given) 2.5%
O=C(NCC1CCCO1)c1ccc(S(=O)(=O)Nc2ccccc2F)cc1 (stereo not given) 2.64%
COc1ccc(S(=O)(=O)N(C)C[C@@H]2Oc3ccc(NS(=O)(=O)c4ccccc4)cc3C(=O)N([C@H](C)CO)C[C@H]2C)cc1 -7.04%
CCCNC(=O)[C@H]1[C@H](CO)[C@H]2Cn3c(cccc3=O)[C@H]2N1Cc1ccccc1Cl -16.8% [at 21 µM]
Cc1cc(C)n2c(Nc3c(C)cccc3C)c(CCc3ccccc3)nc2n1 6.99%
O=C(NCCCCNC(=O)c1cccnc1Cl)c1cccnc1Cl -18.4%
Cc1ccccc1-c1csc(C(C)(O)c2ccccc2)n1 (stereo not given) 16.6%
COc1ccc(Cl)cc1NC(=O)CN(C)C(=O)C1COc2ccccc2O1 (stereo not given) -19.1%
C[C@@H]1CCCCO[C@@H](CN(C)C(=O)Nc2cccc3ccccc23)[C@H](C)CN([C@H](C)CO)C(=O)c2cc(NC(=O)CCC(F)(F)F)ccc2O1 -31.9%
CCn1c2c(n(C(C)=O)c1=O)C[C@@H](c1ccccc1)[C@@H](C)[C@@H](C(=O)N1CCCC1)C2 -3.98%
Cc1ccc(S(=O)(=O)Nc2ccc(O)c3ncccc23)cc1 18.2%
COc1ccc2nc(NN=Cc3cccc(C)n3)cc(C)c2c1 -0.492%
C[C@@H]1CN([C@H](C)CO)C(=O)c2cc(NC(=O)CCC(F)(F)F)ccc2O[C@@H](C)CCCCO[C@@H]1CN(C)C(=O)C1CCCCC1 0.852%
CCCc1nc2ccccc2n1C(C)C(=O)NC(C)(C)C (stereo not given) 20.8%
O=C1NC(c2ccccc2)=CC(c2ccccc2O)N1 (stereo not given) -4.39%
CN(C)CCNc1nc2sc3c(c2c(=O)n1-c1ccc(F)cc1)CCCCC3 -4.86%
CCNC(=O)C[C@H]1CC[C@H]2[C@H](COc3ccc(NC(=O)c4ccc(F)c(F)c4)cc3C(=O)N2C)O1 -15.2%
O=S(=O)(c1ccc(F)cc1)N1CC[C@@H]2[C@H]1c1cc(-c3ccc(F)cc3)ccc1N[C@@H]2CO -24%
Cc1ccc(S(=O)(=O)Nc2cccc(C(=O)NCCCn3ccnc3)c2)cc1F -1.15%
Nc1ccc(CC(N)c2csc(Nc3cc(Oc4ccccc4)ncn3)n2)cc1 (stereo not given) -9.32%
CCC(C)[C@H](NC(=O)[C@@H]1Cc2ccccc2CN1)C(=O)NCc1ccc(C)cc1 (stereo not given in full) 20%
CCCc1cc(=O)oc2c(C)c(OCC(=O)N3C[C@H]4C[C@@H](C3)c3cccc(=O)n3C4)ccc12 -5.43%
COc1ccc(C2CC(c3cccs3)=NN2C(=O)CCC(=O)O)cc1OC (stereo not given) -2.94%
O=C(C1CCOCC1)N1[C@H](CO)[C@@H](c2ccccc2)C12CN(Cc1cccnc1)C2 -4.83% [at 21 µM]
CCCN(CCC)CCCNC(=O)c1cc2c(=O)[nH]c3ccccc3c2n1C -5.11%
CCN1CCN(CCC(=O)Nc2ccc(Br)c(C)c2)CC1 -24%
COc1ccc2oc(C(=O)OC(C)C(=O)N3CCC(C)CC3)c(C)c2c1 (stereo not given) 19.8%
CC(C)NC(=O)N1CC[C@@H]2[C@H]1c1cc(Br)ccc1N(C)[C@@H]2CO 6.46%
O=C(NNc1c(F)c(F)cc(F)c1F)C1CCN(S(=O)(=O)c2ccccc2F)CC1 -10.8%
COc1cc(C)nc(N2CCC(C(=O)NCC3CCCO3)CC2)n1 (stereo not given) 18.9%
CCS(=O)(=O)N1CCC2(CC1)OCCN2S(=O)(=O)c1ccccc1 16.5%
C[C@H]1CN=C(Nc2ccccc2)N1CCCC1CCCC1 5.18%
COc1cccc(-c2ncc3ccccc3c2COC(=O)c2ccc(F)cc2)c1 -3.47%
CC(=O)NCCNc1nc(NCc2cccs2)nc2ccsc12 1.39%
C[C@@H]1CCCCO[C@H](CN(C)C(=O)Nc2cccc3ccccc23)[C@@H](C)CN([C@@H](C)CO)C(=O)c2cc(NS(=O)(=O)c3cn(C)cn3)ccc2O1 22.5%

Reprinted at random: 7 records from the list, in no set order.
CPE protection (higher = active), inactive:
CO[C@@H]1CN(C)C(=O)c2ccc(NC(=O)Nc3cc(F)ccc3F)cc2OC[C@@H](C)N(C(=O)c2ccccn2)C[C@H]1C 17.2% [at 21 µM]
C[C@@H]1CCCCO[C@H](CN(C)C(=O)Nc2cccc3ccccc23)[C@@H](C)CN([C@@H](C)CO)C(=O)c2cc(NS(=O)(=O)c3cn(C)cn3)ccc2O1 22.5%
CCS(=O)(=O)N1CCC2(CC1)OCCN2S(=O)(=O)c1ccccc1 16.5%
CCn1c2c(n(C(C)=O)c1=O)C[C@@H](c1ccccc1)[C@@H](C)[C@@H](C(=O)N1CCCC1)C2 -3.98%
COc1ccccc1C(=O)Nc1ccc2c(c1)CN(Cc1cnc(C)s1)CC2 -14.8%
Cc1csc(-c2nc3ccccc3n2C(C(=O)NC(C)(C)C)c2ccccc2)c1 (stereo not given) -21.3%
CC(=O)Nc1ccc(-c2ccnc3c2CC(C(=O)Nc2ccccc2)O3)cc1 (stereo not given) -11.2%
